# Measurements: the supplement of paper PMC8728848
# The other results are listed elsewhere or left out.
# B1: EUL D1A second (Oryza sativa) (protein)
# chain: GAATACTIGGVPVHTVRVFSAAGEDYCLTVRNGTACLAPKNPRDDYQHWIKDMRHSNKIRDEEGYPAFALVNKVTGEAIKHSTGQGHPVKLVPYNPEYQDESVLWTESKDVGKGFRCIRMVNNIYLNFDAFHGDKDHGGIHDGTEIVLWKWCEGDNQRWKILPWILEQKLISEEDLNSAVDHHHHHH
# Columns and labels:
# Test in all cases: glycan array binding signal (z-score within array); higher = stronger binding
# Conditions in all cases: glycan notation: IUPAC condensed, linker removed
# [1] = biological target: Gal(b1-4)GlcNAc(b1-2)[Gal(b1-4)GlcNAc(b1-6)]Man(a1-6)[GlcNAc(b1-4)][Gal(b1-4)GlcNAc(b1-2)Man(a1-3)]Man(b1-4)GlcNAc(b1-4)GlcNAc
# In short: (§1)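 Negative Z-scores can be read as non-binding. The Z-score is calculated within each array and then averaged across arrays of one protein sequence at different concentrations or buffers and across linkers. Arrays, 3228 in all, were curated from the Consortium for Functional Glycomics database and kept only where the protein sequence was available.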
# [2] = biological target: Gal(b1-4)GlcNAc(b1-2)[Gal(b1-4)GlcNAc(b1-6)]Man(a1-6)[GlcNAc(b1-4)][Gal(b1-4)GlcNAc(b1-2)[Gal(b1-4)GlcNAc(b1-4)]Man(a1-3)]Man(b1-4)GlcNAc(b1-4)[Fuc(a1-6)]GlcNAc
# In short: as §1
# [3] = biological target: Gal(b1-4)GlcNAc(b1-3)Gal(b1-3)GalNAc
# In short: as §1
# [4] = biological target: Gal(b1-4)GlcNAc(b1-3)Gal(b1-3)GlcNAc
# In short: as §1
# [5] = biological target: Gal(b1-4)GlcNAc(b1-3)Gal(b1-4)Glc
# In short: as §1
# [6] = biological target: Gal(b1-4)GlcNAc(b1-3)Gal(b1-4)GlcNAc
# In short: as §1
# [7] = biological target: Gal(b1-4)GlcNAc(b1-3)Gal(b1-4)GlcNAc(b1-2)Man(a1-3)[Gal(b1-4)GlcNAc(b1-3)Gal(b1-4)GlcNAc(b1-2)Man(a1-6)]Man(b1-4)GlcNAc(b1-4)GlcNAc
# In short: as §1
# [8] = biological target: Gal(b1-4)GlcNAc(b1-3)Gal(b1-4)GlcNAc(b1-2)Man(a1-3)[Gal(b1-4)GlcNAc(b1-3)Gal(b1-4)GlcNAc(b1-2)Man(a1-6)]Man(b1-4)GlcNAc(b1-4)[Fuc(a1-6)]GlcNAc
# In short: as §1
# [9] = biological target: Gal(b1-4)GlcNAc(b1-3)Gal(b1-4)GlcNAc(b1-2)[Gal(b1-4)GlcNAc(b1-3)Gal(b1-4)GlcNAc(b1-6)]Man(a1-6)[Gal(b1-4)GlcNAc(b1-3)Gal(b1-4)GlcNAc(b1-2)Man(a1-3)]Man(b1-4)GlcNAc(b1-4)GlcNAc
# In short: as §1
# [10] = biological target: Gal(b1-4)GlcNAc(b1-3)Gal(b1-4)GlcNAc(b1-2)[Gal(b1-4)GlcNAc(b1-3)Gal(b1-4)GlcNAc(b1-6)]Man(a1-6)[Gal(b1-4)GlcNAc(b1-3)Gal(b1-4)GlcNAc(b1-2)Man(a1-3)]Man(b1-4)GlcNAc(b1-4)[Fuc(a1-6)]GlcNAc
# In short: as §1
# [11] = biological target: Gal(b1-4)GlcNAc(b1-3)Gal(b1-4)GlcNAc(b1-3)Gal(b1-4)GlcNAc
# In short: as §1
# [12] = biological target: Gal(b1-4)GlcNAc(b1-3)Gal(b1-4)GlcNAc(b1-3)Gal(b1-4)GlcNAc(b1-2)Man(a1-3)[Gal(b1-4)GlcNAc(b1-3)Gal(b1-4)GlcNAc(b1-3)Gal(b1-4)GlcNAc(b1-2)Man(a1-6)]Man(b1-4)GlcNAc(b1-4)GlcNAc
# In short: as §1
# [13] = biological target: Gal(b1-4)GlcNAc(b1-3)Gal(b1-4)GlcNAc(b1-3)Gal(b1-4)GlcNAc(b1-2)Man(a1-3)[Gal(b1-4)GlcNAc(b1-3)Gal(b1-4)GlcNAc(b1-3)Gal(b1-4)GlcNAc(b1-2)Man(a1-6)]Man(b1-4)GlcNAc(b1-4)[Fuc(a1-6)]GlcNAc
# In short: as §1
# [14] = biological target: Gal(b1-4)GlcNAc(b1-3)Gal(b1-4)GlcNAc(b1-3)Gal(b1-4)GlcNAc(b1-2)[Gal(b1-4)GlcNAc(b1-3)Gal(b1-4)GlcNAc(b1-3)Gal(b1-4)GlcNAc(b1-6)]Man(a1-6)[Gal(b1-4)GlcNAc(b1-3)Gal(b1-4)GlcNAc(b1-3)Gal(b1-4)GlcNAc(b1-2)Man(a1-3)]Man(b1-4)GlcNAc(b1-4)[Fuc(a1-6)]GlcNAc
# In short: as §1
# [15] = biological target: Gal(b1-4)GlcNAc(b1-3)Gal(b1-4)GlcNAc(b1-3)Gal(b1-4)GlcNAc(b1-3)Gal(b1-4)GlcNAc(b1-2)Man(a1-3)[Gal(b1-4)GlcNAc(b1-3)Gal(b1-4)GlcNAc(b1-3)Gal(b1-4)GlcNAc(b1-3)Gal(b1-4)GlcNAc(b1-2)Man(a1-6)]Man(b1-4)GlcNAc(b1-4)GlcNAc
# In short: as §1
# [16] = biological target: Gal(b1-4)GlcNAc(b1-3)Gal(b1-4)GlcNAc(b1-3)Gal(b1-4)GlcNAc(b1-3)Gal(b1-4)GlcNAc(b1-2)Man(a1-3)[Gal(b1-4)GlcNAc(b1-3)Gal(b1-4)GlcNAc(b1-3)Gal(b1-4)GlcNAc(b1-3)Gal(b1-4)GlcNAc(b1-2)Man(a1-6)]Man(b1-4)GlcNAc(b1-4)[Fuc(a1-6)]GlcNAc
# In short: as §1
# [17] = biological target: Gal(b1-4)GlcNAc(b1-3)Gal(b1-4)GlcNAc(b1-3)Gal(b1-4)GlcNAc(b1-3)Gal(b1-4)GlcNAc(b1-2)[Gal(b1-4)GlcNAc(b1-3)Gal(b1-4)GlcNAc(b1-3)Gal(b1-4)GlcNAc(b1-3)Gal(b1-4)GlcNAc(b1-6)]Man(a1-6)[Gal(b1-4)GlcNAc(b1-3)Gal(b1-4)GlcNAc(b1-3)Gal(b1-4)GlcNAc(b1-3)Gal(b1-4)GlcNAc(b1-2)Man(a1-3)]Man(b1-4)GlcNAc(b1-4)[Fuc(a1-6)]GlcNAc
# In short: as §1
# [18] = biological target: Gal(b1-4)GlcNAc(b1-3)Gal(b1-4)GlcNAc(b1-3)Gal(b1-4)GlcNAc(b1-3)Gal(b1-4)GlcNAc(b1-3)Gal(b1-4)GlcNAc(b1-2)Man(a1-3)[Gal(b1-4)GlcNAc(b1-3)Gal(b1-4)GlcNAc(b1-3)Gal(b1-4)GlcNAc(b1-3)Gal(b1-4)GlcNAc(b1-3)Gal(b1-4)GlcNAc(b1-2)Man(a1-6)]Man(b1-4)GlcNAc(b1-4)GlcNAc
# In short: as §1
# [19] = biological target: Gal(b1-4)GlcNAc(b1-3)Gal(b1-4)GlcNAc(b1-3)Gal(b1-4)GlcNAc(b1-3)Gal(b1-4)GlcNAc(b1-3)Gal(b1-4)GlcNAc(b1-2)Man(a1-3)[Gal(b1-4)GlcNAc(b1-3)Gal(b1-4)GlcNAc(b1-3)Gal(b1-4)GlcNAc(b1-3)Gal(b1-4)GlcNAc(b1-3)Gal(b1-4)GlcNAc(b1-2)Man(a1-6)]Man(b1-4)GlcNAc(b1-4)[Fuc(a1-6)]GlcNAc
# In short: as §1
# [20] = biological target: Gal(b1-4)GlcNAc(b1-3)Gal(b1-4)GlcNAc(b1-3)Gal(b1-4)GlcNAc(b1-3)Gal(b1-4)GlcNAc(b1-3)Gal(b1-4)GlcNAc(b1-2)[Gal(b1-4)GlcNAc(b1-3)Gal(b1-4)GlcNAc(b1-3)Gal(b1-4)GlcNAc(b1-3)Gal(b1-4)GlcNAc(b1-3)Gal(b1-4)GlcNAc(b1-6)]Man(a1-6)[Gal(b1-4)GlcNAc(b1-3)Gal(b1-4)GlcNAc(b1-3)Gal(b1-4)GlcNAc(b1-3)Gal(b1-4)GlcNAc(b1-3)Gal(b1-4)GlcNAc(b1-2)Man(a1-3)]Man(b1-4)GlcNAc(b1-4)[Fuc(a1-6)]GlcNAc
# In short: as §1
# [21] = biological target: Gal(b1-4)GlcNAc(b1-3)Gal(b1-4)GlcNAc(b1-3)Gal(b1-4)GlcNAc(b1-3)Gal(b1-4)GlcNAc(b1-3)Gal(b1-4)GlcNAc(b1-3)Gal(b1-4)GlcNAc(b1-2)Man(a1-3)[Gal(b1-4)GlcNAc(b1-3)Gal(b1-4)GlcNAc(b1-3)Gal(b1-4)GlcNAc(b1-3)Gal(b1-4)GlcNAc(b1-3)Gal(b1-4)GlcNAc(b1-3)Gal(b1-4)GlcNAc(b1-2)Man(a1-6)]Man(b1-4)GlcNAc(b1-4)GlcNAc
# In short: as §1
# [22] = biological target: Gal(b1-4)GlcNAc(b1-3)Gal(b1-4)GlcNAc(b1-3)GalNAc
# In short: as §1
# [23] = biological target: Gal(b1-4)GlcNAc(b1-3)Gal(b1-4)GlcNAc(b1-3)[Gal(b1-4)GlcNAc(b1-3)Gal(b1-4)GlcNAc(b1-6)]GalNAc
# In short: as §1
binder,measurement,setting,value
B1,glycan array binding signal (z-score),[1],-0.799
same,glycan array binding signal (z-score),[2],-0.544
same,glycan array binding signal (z-score),[3],0.849
same,glycan array binding signal (z-score),[4],-0.245
same,glycan array binding signal (z-score),[5],-0.283
same,glycan array binding signal (z-score),[6],-0.532
same,glycan array binding signal (z-score),[7],-0.276
same,glycan array binding signal (z-score),[8],1.13
same,glycan array binding signal (z-score),[9],0.486
same,glycan array binding signal (z-score),[10],3.31
same,glycan array binding signal (z-score),[11],0.445
same,glycan array binding signal (z-score),[12],0.087
same,glycan array binding signal (z-score),[13],1.62
same,glycan array binding signal (z-score),[14],1.59
same,glycan array binding signal (z-score),[15],0.694
same,glycan array binding signal (z-score),[16],1.04
same,glycan array binding signal (z-score),[17],0.438
same,glycan array binding signal (z-score),[18],0.641
same,glycan array binding signal (z-score),[19],0.004
same,glycan array binding signal (z-score),[20],1.52
same,glycan array binding signal (z-score),[21],0.069
same,glycan array binding signal (z-score),[22],0.955
same,glycan array binding signal (z-score),[23],1.33

# Given with bars between the fields: entries from further up
binder | measurement | setting | value
B1 | glycan array binding signal (z-score) | [11] | 0.445
same | glycan array binding signal (z-score) | [12] | 0.087
